Reference: PubChem BioAssay AID2685 (National Center for Advancing Translational Sciences (NCATS), 2010)
About 2,100 (0.66%) of roughly 320,000 compounds were called active. The shares of active, inactive and inconclusive entries below differ from those in the screen. Calls come from the whole dose curve; as a rule, active = well fitted inhibition curve with a large enough effect in the signal ratio, with a control signal flat (not every such curve was filed as active); inconclusive = small, poorly fitted or top-dose-only effect, or effect the other way, or a change in a side signal; inactive = flat fitted curve, though single readings scatter; the % refers to the signal ratio. Potencies of inconclusive entries are doubtful fits and often do not repeat.
% is set by controls: 0 for no effect and ±100 for the full control effect; potency is the fitted concentration of half-maximal effect.

Assay: qHTS Assay for Lipid Storage Modulators in Drosophila S3 Cells
Settings: BODIPY lipid droplet fluorescence, 18-24 h, cells fed with added oleic acid; lipid storage change, negative = inhibition: at 46.1 µM (top of the series) unless noted
Method in brief: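 Drosophila S3 cells loaded with oleic acid (400 uM, as added) and compounds at several concentrations; lipid droplets imaged by 488-nm laser-scanning cytometry, 500–530 nm intensity and object ratio to cell channel. Percent activity normalized to 20 uM Triacsin C.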
In the case of Cc1nc2cc(F)ccc2n1C1CCN(S(=O)(=O)c2ccccc2)CC1, the lipid storage change, negative = inhibition is reported as inconclusive: -59%. For Cc1ccc(C(C(=O)NC2CCCC2)N(C(=O)c2csnn2)C2CC2)cc1 (stereo not drawn), the lipid storage change, negative = inhibition was inconclusive: -53.8%. With CCOc1ccc(C(C)C)cc1S(=O)(=O)N1CCOCC1 the lipid storage change, negative = inhibition was inconclusive: 6.41%. In the case of Cc1cccc(OC(C)C(=O)Nc2cc(S(=O)(=O)N3CCCCC3)ccc2C)c1 (stereo not drawn), the lipid storage change, negative = inhibition is reported as inconclusive: -19.3%. For CC(C)N(C(=S)NC1CC2CCC1C2)c1ccccc1 (stereo not drawn), the lipid storage change, negative = inhibition was inconclusive: 98%. With CCn1c(C)nc2cc(C(=O)N/N=C/c3cccc(O)c3O)ccc21 the Potency was inconclusive: 25.9 µM [falling, single point]. With O=C(NCCN1CCN(c2cccc(Cl)c2)CC1)Nc1ccccc1 the lipid storage change, negative = inhibition was inconclusive: 347%. With O=C(CNC(=O)c1ccco1)OCC(=O)c1ccccc1 the lipid storage change, negative = inhibition was inconclusive: -6.39%. In the case of CCOC(=O)c1ccc(NC(=O)c2nc[nH]c2C(=O)N2CCc3ccccc3C2)cc1, the lipid storage change, negative = inhibition is reported as “inactive”. With COc1ccc(OCCCc2c(C)n[nH]c2C)cc1 the lipid storage change, negative = inhibition was inconclusive: 292%. For CN(C)c1ccc(C2CC(c3cccc(NS(C)(=O)=O)c3)=NN2C(=O)c2ccccc2)cc1 (stereo not drawn), the lipid storage change, negative = inhibition was inconclusive: -4.65%. In the case of COc1cccc(NC(=O)COc2cccc3c2CCNC3=O)c1, the lipid storage change, negative = inhibition is reported as inconclusive: 38%. For CC1(C)C=Cc2c(c3ccccc3[nH]c2=O)O1, the lipid storage change, negative = inhibition was inconclusive: 0.612%. With CCOC(=O)N1CCC(N2Cc3cccc(C(=O)Nc4c(C)cccc4CC)c3C2=O)CC1 the Potency was inconclusive: 20.6 µM [falling, partial curve]. For Cc1ccc(C)c(NC(=O)C(NCC(C)(C)N2CCOCC2)c2ccccc2)c1 (stereo not drawn), the lipid storage change, negative = inhibition was inconclusive: -12.7%. With COc1cc(NC(=O)C2CC(=O)NC3=C2C(=O)CC(C)(C)C3)c(OC)cc1Cl (stereo not drawn) the lipid storage change, negative = inhibition was inconclusive: 138%. In the case of Cc1nc2nc(-c3ccccc3)cc(=O)n2[nH]1, the Potency is reported as inconclusive: 0.0164 µM [falling, full curve, poor fit]. For COc1ccc(OC)c2sc(NC(=O)C(C)C)nc12, the Potency was inconclusive: 29.1 µM [activator, single point]. In the case of C=CCOc1c(CNc2ccc(C(=O)O)cc2)cccc1OC, the lipid storage change, negative = inhibition is reported as inconclusive: 10.8%. With Cc1ccccc1C(=O)N1CCC(C(=O)NC2CCCCC2)CC1 the lipid storage change, negative = inhibition was inconclusive: 198%. For O=C(O)c1ccccc1-c1ccccc1C(=O)Nc1cccc(O)c1, the lipid storage change, negative = inhibition was inconclusive: -2.23%. In the case of CN(CC(=O)Nc1ccc(F)cc1)c1ccc(S(=O)(=O)N2CCCCC2)cc1[N+](=O)[O-], the lipid storage change, negative = inhibition is reported as inconclusive: -46.6%. With CCOC(=O)C(=O)Nc1sc(C(=O)N2CCOCC2)c(C)c1C#N the lipid storage change, negative = inhibition was inconclusive: 10.2%. In the case of Cc1ccc(N2C(N)=C(C#N)C(c3cccs3)C3=C2CC(C)(C)CC3=O)cc1 (stereo not drawn), the Potency is reported as inconclusive: 0.259 µM [rising, full curve, poor fit]. In the case of CCN1CCCC(OC(=O)c2cc(-c3ccc(C)cc3)nc3ccccc23)C1 (stereo not drawn), the lipid storage change, negative = inhibition is reported as inconclusive: 57.9%. In the case of CNc1c(NS(=O)(=O)c2ccc(Cl)s2)c(=O)oc2ccccc12, the Potency is reported as inconclusive: 3.26 µM [falling, single point]. In the case of Cc1ccc2cc(C#N)c(N3CCN(C(=O)c4ccccc4)CC3)nc2c1, the Potency is reported as inconclusive: 0.731 µM [falling, single point]. For COc1ccc(C2NN=C(c3c[nH]c4ccccc34)C2O)cc1 (stereo not drawn), the Potency was inconclusive: 18.4 µM [falling, single point]. For Cc1ccc(C(=O)C2=C(O)C(=O)N(Cc3ccco3)C2c2cccc(Cl)c2)o1 (stereo not drawn), the lipid storage change, negative = inhibition was inconclusive: 13.8%. With CCOC(=O)NC(=O)COC(=O)c1ccc(Sc2ncn[nH]2)c([N+](=O)[O-])c1 the lipid storage change, negative = inhibition was inconclusive: 24.9%. In the case of CC(Oc1cc2oc(=O)c3c(c2cc1Cl)CCC3)C(=O)NCCN1CCOCC1 (stereo not drawn), the lipid storage change, negative = inhibition is reported as “inactive”. In the case of C[C@H](NC(=O)C1CC(=O)N(c2ccc3c(c2)OCO3)C1)C(=O)NC1CCCC1 (stereo partly drawn), the lipid storage change, negative = inhibition is reported as inconclusive: 40.4%. With CC1=NN(Cc2ccccc2)C(=O)/C1=C/c1ccc(N(C)C)cc1 the lipid storage change, negative = inhibition was inconclusive: -43.6%. In the case of O=C(COc1ccc(F)cc1F)Nc1cccnc1, the lipid storage change, negative = inhibition is reported as inconclusive: 5.47%. For O=C(N/N=C/c1cc([N+](=O)[O-])ccc1O)NC12CC3CC(CC(C3)C1)C2, the lipid storage change, negative = inhibition was inconclusive: 0.947%. In the case of O=C(O)c1cc(O)c2c(c1)[C@H]([C@H]1c3cc(C(=O)O)cc(O)c3C(=O)c3c(O[C@@H]4O[C@H](CO)[C@@H](O)[C@H](O)[C@H]4O)cccc31)c1cccc(OC3O[C@H](CO)[C@@H](O)[C@H](O)[C@H]3O)c1C2=O (stereo partly drawn), the lipid storage change, negative = inhibition is reported as inconclusive: -16.2%. With COCC(=O)N1CCCC(C(=O)c2ccc(Oc3ccccc3)cc2)C1 (stereo not drawn) the Potency was inconclusive: 0.103 µM [falling, full curve, poor fit]. In the case of O=C(CSC(=S)N1CCCCC1)Nc1nc(-c2ccccc2)c(-c2ccccc2)o1, the Potency is reported as inconclusive: 18.4 µM [falling, single point]. In the case of O=C(Oc1ccc(C(=S)N2CCOCC2)cc1)c1ccccc1, the lipid storage change, negative = inhibition is reported as inconclusive: -5.32%. For COC(=O)c1c(NC(=O)Cc2ccccc2)sc2c1CC(C)(C)NC2(C)C, the Potency was inconclusive: 6.51 µM [activator, single point]. For O=C(c1cccc(S(=O)(=O)NCc2ccccc2)c1)N1CCN(c2cccc(C(F)(F)F)c2)CC1, the Potency was inconclusive: 20.6 µM [falling, single point]. With Nc1ccc(CSc2ccc(Cl)cc2)cc1 the lipid storage change, negative = inhibition was inconclusive: 32.7%. For Cc1ccccc1OCC(=O)OC(C)CN1CCN(C)CC1 (stereo not drawn), the lipid storage change, negative = inhibition was inconclusive: -50.8%. For CCCCOc1ccc(Cc2n[nH]c(=S)n2N)cc1, the lipid storage change, negative = inhibition was inconclusive: -9.58%. In the case of O=[N+]([O-])c1ccc(N2CCN(c3nc(-c4ccc(Cl)cc4)cs3)CC2)cc1, the lipid storage change, negative = inhibition is reported as inconclusive: 35.7%. For Cn1cccc1C(=O)NNC(=O)COc1ccc(C#N)cc1, the lipid storage change, negative = inhibition was inconclusive: 4.89%. In the case of COc1ccc(C(=O)c2ccc(Cl)cc2)cc1, the lipid storage change, negative = inhibition is reported as inconclusive: 151%. For COc1ccc2c(c1)N1CCN=C1N2C, the lipid storage change, negative = inhibition was inconclusive: -38.1%. In the case of Cc1cc(C)c(C#N)c(SCCS(=O)(=O)c2ccc(Cl)cc2)n1, the lipid storage change, negative = inhibition is reported as inconclusive: 24.8%. In the case of O=C(CCc1c[nH]c2ccccc12)NCCc1ccc2c(c1)OCCO2, the lipid storage change, negative = inhibition is reported as inconclusive: 47.2%. With O=C(NCCN1CCOCC1)c1ccc(N2CCCC2)c([N+](=O)[O-])c1 the lipid storage change, negative = inhibition was inconclusive: 20.4%. With COc1ccc(OC(C)C(=O)Nc2cccc(F)c2)cc1 (stereo not drawn) the lipid storage change, negative = inhibition was inconclusive: 24.9%. In the case of CCCn1c(SCC(=O)Nc2ccccc2-c2ccccc2)nnc1-c1ccoc1C, the Potency is reported as inconclusive: 6.51 µM [activator, single point]. For COCCN(C(=O)c1snc(C(N)=O)c1N)C(C(=O)NC1CCCCC1)c1ccc(F)cc1 (stereo not drawn), the lipid storage change, negative = inhibition was inconclusive: -10.5%. In the case of O=C(NNC(=O)c1cccc2ccccc12)c1ccco1, the lipid storage change, negative = inhibition is reported as inconclusive: 18.3%. In the case of COc1ccc(CNC(=O)C(=O)NCC2CCCO2)cc1 (stereo not drawn), the lipid storage change, negative = inhibition is reported as inconclusive: 10.5%. With Cc1cc([N+](=O)[O-])ccc1N the lipid storage change, negative = inhibition was “inconclusive”. In the case of S=C(Nc1ccc(Cl)cc1)N(CCCN1CCOCC1)Cc1cccs1, the lipid storage change, negative = inhibition is reported as inconclusive: 78.4%. In the case of CC(C(=O)Nc1ccc(S(=O)(=O)N2CCCC2)cc1)N1CCc2ccccc2C1 (stereo not drawn), the Potency is reported as inconclusive: 18.4 µM [falling, partial curve, poor fit]. For Cc1cc(N2CC(C)OC(C)C2)nc2ccccc12 (stereo not drawn), the Potency was inconclusive: 0.0041 µM [activator, full curve, poor fit]. In the case of NC(=O)CC(NC(=O)OCc1ccccc1)C(=O)O (stereo not drawn), the lipid storage change, negative = inhibition is reported as inconclusive: 34.4%. For CSc1ncc(Cl)c(C(=O)Nc2ccccc2[N+](=O)[O-])n1, the Potency was inconclusive: 29.1 µM [falling, single point]. With OCCC1CCCCN1CC(O)COCc1ccc(Cl)cc1 (stereo not drawn) the Potency was inconclusive: 6.51 µM [activator, single point]. With O=C(Nc1ccc(F)cc1)Nc1nnc(Cc2ccccc2F)s1 the Potency was inconclusive: 13 µM [falling, partial curve]. In the case of CCOC(=O)Cc1cc(-c2ccc(O)cc2)nc2ccc3ccccc3c12, the Potency is reported as inconclusive: 8.2 µM [falling, partial curve, poor fit]. For Cc1ccc(C)c(S(=O)(=O)N2CCCC2CNC(=O)C(=O)NCc2ccco2)c1 (stereo not drawn), the lipid storage change, negative = inhibition was “inconclusive”. With O=C(O)C1C2C=CC(C2)C1C(=O)OC1CC2CCC1C2 (stereo not drawn) the lipid storage change, negative = inhibition was inconclusive: -9.61%. For N#C/C(=C\c1cccnc1)C(=O)NC1CCCCC1, the lipid storage change, negative = inhibition was inconclusive: 11.3%. With COC(=O)CCCC1=CC2=C(c3ccccc3)C(=O)C(C)(OC(=O)C3CCCC3)C(=O)C2=CN1c1ccccc1 (stereo not drawn) the lipid storage change, negative = inhibition was inconclusive: -22.9%. For NC(N)=NN=C1CCC(c2ccccc2)CC1 (stereo not drawn), the Potency was inconclusive: 0.82 µM [activator, single point]. With O=[N+]([O-])c1ccc(N=NN(CCO)CCO)cc1 the lipid storage change, negative = inhibition was inconclusive: 36.3%. With CC1(C)C2CCC(C2)C1(C)N=C1OC(CCl)CS1 (stereo not drawn) the lipid storage change, negative = inhibition was inconclusive: -27.7%. With COc1cc(NC(=S)N2c3ccccc3CC2C)cc(OC)c1 (stereo not drawn) the Potency was inconclusive: 4.11 µM [activator, partial curve]. With Cc1ccc(/C=C/C(=O)NCc2ccco2)o1 the lipid storage change, negative = inhibition was inconclusive: 0.991%. With Cc1ccccc1N1CCN(C(=O)CN2C(=O)c3ccccc3C2=O)CC1 the lipid storage change, negative = inhibition was inconclusive: 80.5%. With CCOC(=O)c1c(-c2ccc(C)cc2)csc1/N=C/N(C)C the Potency was inconclusive: 2.31 µM [falling, single point]. With Cc1c([N+](=O)[O-])cc(C(=O)Nc2ccc(NC(=O)c3ccco3)cc2)cc1[N+](=O)[O-] the lipid storage change, negative = inhibition was inconclusive: -100%. With O=C(Nc1cccnc1)c1cc2cc(Br)ccc2o1 the lipid storage change, negative = inhibition was inconclusive: 6.45%.
